According to patent US20130142868A1 (priority 2010, published 2013):

Assay: in vivo
Conditions: rat; for AUC: AUCplasma
[1] = inhaled or intranasal, 2.5 mg/kg

CN1CC[C@]23c4c5ccc(O)c4O[C@H]2[C@@H](O)C=C[C@H]3[C@H]1C5 [morphine]
AUC (inhaled or intranasal, 1 mg/kg): 105 ng·h/mL | Cmax (inhaled or intranasal, 1 mg/kg): 104 ng/mL | AUC [1]: 258 ng·h/mL | Cmax [1]: 195 ng/mL | AUC (inhaled or intranasal, 5 mg/kg): 478 ng·h/mL | Cmax (inhaled or intranasal, 5 mg/kg): 322 ng/mL | AUC (ip, 1 mg/kg): 104 ng·h/mL | Cmax (ip, 1 mg/kg): 97 ng/mL | AUC (ip, 2.5 mg/kg): 324 ng·h/mL | Cmax (ip, 2.5 mg/kg): 273 ng/mL | AUC (ip, 5 mg/kg): 698 ng·h/mL | Cmax (ip, 5 mg/kg): 579 ng/mL
